Experimental data taken from US20200048328A1 (Bristol-Myers Squibb, published 2020).
Residue numbers refer to the chain shown, from its start. These are yes or no findings as the source states them, for the method shown. Some binding calls cover weakened binding; strength is not graded here. For part of these data: Tags and fused reporters may be left off the sequences shown. Blank lines part the entries; values can stand above or below the binder they belong to.

Amino acid sequences for entries named in this document (tags omitted). A change or cut given only in a name is not applied to a line headed by its entry. Residues count along the entry.
UniProt P02770, residues 25-608: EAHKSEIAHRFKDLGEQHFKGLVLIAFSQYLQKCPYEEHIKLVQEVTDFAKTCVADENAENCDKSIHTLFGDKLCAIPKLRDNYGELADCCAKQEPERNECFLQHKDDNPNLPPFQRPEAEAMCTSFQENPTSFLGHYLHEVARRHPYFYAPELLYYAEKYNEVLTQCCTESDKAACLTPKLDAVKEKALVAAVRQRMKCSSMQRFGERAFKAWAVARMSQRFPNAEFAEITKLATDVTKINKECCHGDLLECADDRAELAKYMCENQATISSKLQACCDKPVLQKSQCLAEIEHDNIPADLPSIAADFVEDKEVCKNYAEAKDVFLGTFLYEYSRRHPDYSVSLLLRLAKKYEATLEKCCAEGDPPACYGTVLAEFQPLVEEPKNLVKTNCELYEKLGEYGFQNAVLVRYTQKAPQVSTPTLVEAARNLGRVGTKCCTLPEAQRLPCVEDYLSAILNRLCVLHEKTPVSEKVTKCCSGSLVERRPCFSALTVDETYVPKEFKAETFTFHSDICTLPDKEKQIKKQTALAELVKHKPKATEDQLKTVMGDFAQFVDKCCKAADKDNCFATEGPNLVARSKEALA
UniProt P02768: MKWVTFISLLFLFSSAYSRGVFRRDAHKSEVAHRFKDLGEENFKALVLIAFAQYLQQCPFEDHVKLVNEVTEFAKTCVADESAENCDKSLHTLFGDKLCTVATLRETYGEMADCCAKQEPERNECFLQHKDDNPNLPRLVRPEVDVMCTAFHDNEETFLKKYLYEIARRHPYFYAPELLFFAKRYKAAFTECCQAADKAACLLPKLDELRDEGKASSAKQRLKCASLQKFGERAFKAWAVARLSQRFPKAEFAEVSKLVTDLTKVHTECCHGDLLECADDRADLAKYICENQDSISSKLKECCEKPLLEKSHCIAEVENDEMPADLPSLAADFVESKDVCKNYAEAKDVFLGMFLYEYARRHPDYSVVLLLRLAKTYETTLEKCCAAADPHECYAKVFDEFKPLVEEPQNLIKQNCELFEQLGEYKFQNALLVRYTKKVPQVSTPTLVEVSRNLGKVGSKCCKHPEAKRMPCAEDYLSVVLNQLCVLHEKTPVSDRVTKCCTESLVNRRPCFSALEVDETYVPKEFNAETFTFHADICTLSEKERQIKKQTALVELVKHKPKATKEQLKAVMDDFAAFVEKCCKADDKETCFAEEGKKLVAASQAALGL
UniProt P07724, residues 25-608: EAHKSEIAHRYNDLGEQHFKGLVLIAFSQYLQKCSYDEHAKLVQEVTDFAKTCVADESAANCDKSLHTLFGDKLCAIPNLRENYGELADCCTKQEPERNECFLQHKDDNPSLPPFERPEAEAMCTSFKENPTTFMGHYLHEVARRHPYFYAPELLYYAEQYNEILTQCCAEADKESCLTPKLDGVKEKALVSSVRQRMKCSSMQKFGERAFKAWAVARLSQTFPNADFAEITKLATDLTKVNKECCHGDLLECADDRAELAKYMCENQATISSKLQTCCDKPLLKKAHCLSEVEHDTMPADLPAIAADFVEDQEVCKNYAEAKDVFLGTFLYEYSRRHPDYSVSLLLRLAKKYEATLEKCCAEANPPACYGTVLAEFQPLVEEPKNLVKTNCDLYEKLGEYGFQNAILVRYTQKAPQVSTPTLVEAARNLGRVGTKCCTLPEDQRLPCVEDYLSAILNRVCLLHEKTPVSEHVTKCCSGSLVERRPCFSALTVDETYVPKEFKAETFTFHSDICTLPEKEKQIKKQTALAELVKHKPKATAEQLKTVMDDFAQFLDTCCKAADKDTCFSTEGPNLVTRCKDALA
UniProt Q28522, residues 17-600: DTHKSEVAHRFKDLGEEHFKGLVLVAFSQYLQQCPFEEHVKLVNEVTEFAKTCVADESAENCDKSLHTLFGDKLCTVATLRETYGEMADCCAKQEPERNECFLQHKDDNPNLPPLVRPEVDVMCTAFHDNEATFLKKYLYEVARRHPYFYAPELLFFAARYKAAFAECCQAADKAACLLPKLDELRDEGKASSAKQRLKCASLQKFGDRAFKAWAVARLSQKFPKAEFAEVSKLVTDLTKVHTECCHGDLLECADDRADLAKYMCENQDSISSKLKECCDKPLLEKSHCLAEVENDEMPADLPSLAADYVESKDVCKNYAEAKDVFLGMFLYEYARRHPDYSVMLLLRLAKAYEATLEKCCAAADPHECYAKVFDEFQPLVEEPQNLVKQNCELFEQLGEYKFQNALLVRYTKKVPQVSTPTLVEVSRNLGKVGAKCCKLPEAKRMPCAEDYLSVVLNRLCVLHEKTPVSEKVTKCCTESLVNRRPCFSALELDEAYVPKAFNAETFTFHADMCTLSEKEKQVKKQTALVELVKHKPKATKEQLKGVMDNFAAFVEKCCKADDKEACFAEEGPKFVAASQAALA
UniProt Q8NBP7, residues 31-692: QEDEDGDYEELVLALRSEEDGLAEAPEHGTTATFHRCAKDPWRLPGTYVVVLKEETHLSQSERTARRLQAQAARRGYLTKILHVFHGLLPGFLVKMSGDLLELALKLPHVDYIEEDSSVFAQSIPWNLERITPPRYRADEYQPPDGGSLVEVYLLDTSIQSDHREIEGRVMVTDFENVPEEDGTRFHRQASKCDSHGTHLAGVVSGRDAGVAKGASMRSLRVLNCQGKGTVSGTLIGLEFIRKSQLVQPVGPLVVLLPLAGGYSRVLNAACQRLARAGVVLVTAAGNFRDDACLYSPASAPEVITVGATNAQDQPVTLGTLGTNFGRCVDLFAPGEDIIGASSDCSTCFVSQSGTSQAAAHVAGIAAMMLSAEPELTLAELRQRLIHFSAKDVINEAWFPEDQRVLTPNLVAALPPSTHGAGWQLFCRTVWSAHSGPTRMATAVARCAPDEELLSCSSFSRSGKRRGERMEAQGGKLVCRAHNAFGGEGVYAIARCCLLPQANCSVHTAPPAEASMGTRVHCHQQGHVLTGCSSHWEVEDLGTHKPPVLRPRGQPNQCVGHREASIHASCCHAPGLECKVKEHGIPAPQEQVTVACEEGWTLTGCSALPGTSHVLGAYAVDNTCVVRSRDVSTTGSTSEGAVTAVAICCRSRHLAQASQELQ

Legend:
rat serum albumin = biological target: T1, rat serum albumin (rat, UniProt P02770 25-608); test: SPR off-rate
T1 construct: also called Rat SA; RSA

human serum albumin = biological target: T2, human serum albumin (human, UniProt P02768 25-609); test: SPR off-rate
T2 construct: immobilized on chips or coated on plates elsewhere; also called HSA; HuSA

mouse serum albumin = biological target: T3, mouse serum albumin (mouse, UniProt P07724 25-608); test: SPR off-rate
T3 construct: also called MSA; MuSA

rhesus serum albumin = biological target: T4, rhesus serum albumin (rhesus, UniProt Q28522 17-600); test: SPR off-rate
T4 construct: also called RhSA; Rh-SA

domain III of HSA = biological target: T5, domain III of HSA (human, UniProt P02768 405-609, limits assumed); test: SPR on HSA domains
T5 construct: domain: III; also called HuSA domainIII

human PCSK9 [1] = biological target: T6, human PCSK9 (human, UniProt Q8NBP7 31-692); test: BLI (Octet)
T6 construct: also called hPCSK9; huPCSK9

human PCSK9 [2] = biological target: T6, human PCSK9; test: PCSK9 FRET assays
human PCSK9 [3] = biological target: T6, human PCSK9; test: SPR, dual injection on immobilized albumin
human PCSK9 [4] = biological target: T6, human PCSK9; test: SPR (Biacore), dual injection: human PCSK9 injected over tandem that is pre-bound to immobilized HSA; control trace with buffer instead of PCSK9

B1: 5916_E03.PS5-2 (designed binder)
chain: MGVSDVPRDLEVVAATPTSLLISWDAPAVTVRYYRITYGREVQKYSDLGPLYIYQEFTVPGSKSTATISGLKPGVDYTITVYAVTGSGESPASSKPISINYRTPCHHHHHH
binding (rat serum albumin): binds
binding (human serum albumin): binds
binding (mouse serum albumin): binds
binding (rhesus serum albumin): binds

B2: PKE2 Adnectin 2629_E06 (designed binder)
chain: MGVSDVPRDLEVVAATPTSLLISWDAPAVTVRYYRITYGREVQKYSDLGPLYIYQEFTVPGSKSTATISGLKPGVDYTITVYAVTGSGESPASSKPISINYRTEIDKPSQHHHHHH
notes: 10Fn3 domain with modified CD loop; the entry includes the His6 tail; also called ADX_2629_E06
binding (domain III of HSA): binds

B4: PCSK9-PKE2 tandem Adnectin w/ his tag 4472_C06 (designed binder)
chain: MGVSDVPRDLEVVAATPTSLLISWDAPAEGYGYYRITYGETGGNSPVQEFTVPVSKGTATISGLKPGVDYTITVYAVEFDFPGAGYYHRPISINYRTEPSTPPTPSPSTPPTPSPSGVSDVPRDLEVVAATPTSLLISWDAPAVTVRYYRITYGREVQKYSDLGPLYIYQEFTVPGSKSTATISGLKPGVDYTITVYAVTGSGESPASSKPISINYRTEHHHHHH
notes: also called ATI-1574; ADX_4472_C06
binding (human PCSK9 [1]): binds
binding (human PCSK9 [2]): binds
binding (human PCSK9 [3]): binds
binding (human PCSK9 [4]): binds

B5: 5963_A02.PS5-2 (designed binder)
chain: MGCSTSGVSDVPRDLEVVAATPTSLLISWDAPAVTVRYYRITYGREVQKYSDLGPLYIYQEFTVPGSKSTATISGLKPGVDYTITVYAVTGSGESPASSKPISINYRTPHHHHHH
binding (rat serum albumin): binds
binding (human serum albumin): binds
binding (mouse serum albumin): binds
binding (rhesus serum albumin): binds

Next, values leading:

binding (domain III of HSA): binds
B3: PKE2 Adnectin 2630_D02 (designed binder)
chain: B2 chain with L48W, Q55N
notes: 10Fn3 domain with modified CD loop; the entry includes the His6 tail

binding (domain III of HSA): binds
B6: PKE2 Adnectin 2270_C01 (designed binder)
chain: MASTSGVPRDLEVVAATPTSLLISWDAPAVTVRYYRITYGWQVQMYSDWGPLYIYKEFTVPGSKSTATISGLKPGVDYTITVYAVTGSGESPASSKPISINYRTEGDKPSQHHHHHH
notes: as for B3
